At least one structure is not confirmed: it was looked up by name or label, or the drawing left a doubt.
Test system: SCN5A: sodium channel, voltage gated type V alpha subunit
Assay: INa in SCN5A cells treated with NADH
Format: cell-based
Settings: 100 μM NADH, compared to normal INa (SCN5A)
Procedure: FIG. 1A is a graph showing a series of sodium current traces measuring a INa reduction induced by NADH (nicotinamide adenine dinucleotide) (SCN5A+100 μM [NADH]) compared to normal INa (SCN5A), which can be restored by mitoTEMPO (SCN5A+100 μM [NADH]+5 μM [mitoTEMPO]). SCN5A: sodium channel, voltage gated type V alpha subunit
FIG. 1B is a bar graph showing INa reduction induced by NADH (SCN5A+100 μM [NADH]) compared to normal INa (SCN5A), which can be restored by mitoTEMPO (SCN5A+100 μM [NADH]+5 μM [mitoTEMPO]), which is also compared to mitoTEMPO (5 μM [mitoTEMPO]).
The SCNSA group is the untreated cells group, and the others were treated with 100 μmol/L NADH in the absence or presence of NAD from 50 to 1000 μmol/L.
The SCN5A group is the untreated cells group, and the others were treated with 100 μmol/L NADH in the absence or presence of NAD from 50 to 1000 μmol/L.

NC(=O)C1=CN([C@@H]2O[C@H](COP(=O)(O)OP(=O)(O)OC[C@H]3O[C@@H](n4cnc5c(N)ncnc54)[C@H](O)[C@@H]3O)[C@@H](O)[C@H]2O)C=CC1 [NADH, nicotinamide adenine dinucleotide]
effect of NADH on INa: INa reduction
